Structures can show the parent of a compound that is named as a salt. At least one structure is not confirmed: it was looked up by name or label, or the drawing left a doubt.
Assay: pH of aqueous drug salt solution before resin treatment
Type: physicochemical

c1ccc2c(c1)CC[C@H](CNCCCNC1=NCCCN1)O2 [drug salt of Example 1, (-)-(R)-N-[(3,4-dihydro-2H-1-benzopyran-2-yl)methyl]-N'-(1,4,5,6-tetrahydropyrimidinyl)-1,3-propanediamine dihydrochloride]
pH of drug salt solution (0.67 M aqueous solution): approximately 4.24
measured pH of drug salt solution (1.33 M aqueous solution): 3.98
